Among the data in the supplement of paper PMC6411743 are NP40-soluble protein abundance values, retold here.

The chains behind the UniProt entries cited, without tags or fusion partners. Where a name states a change or a piece, a line headed by the entry shows the natural chain unless it says otherwise.
UniProt P48553, whole entry: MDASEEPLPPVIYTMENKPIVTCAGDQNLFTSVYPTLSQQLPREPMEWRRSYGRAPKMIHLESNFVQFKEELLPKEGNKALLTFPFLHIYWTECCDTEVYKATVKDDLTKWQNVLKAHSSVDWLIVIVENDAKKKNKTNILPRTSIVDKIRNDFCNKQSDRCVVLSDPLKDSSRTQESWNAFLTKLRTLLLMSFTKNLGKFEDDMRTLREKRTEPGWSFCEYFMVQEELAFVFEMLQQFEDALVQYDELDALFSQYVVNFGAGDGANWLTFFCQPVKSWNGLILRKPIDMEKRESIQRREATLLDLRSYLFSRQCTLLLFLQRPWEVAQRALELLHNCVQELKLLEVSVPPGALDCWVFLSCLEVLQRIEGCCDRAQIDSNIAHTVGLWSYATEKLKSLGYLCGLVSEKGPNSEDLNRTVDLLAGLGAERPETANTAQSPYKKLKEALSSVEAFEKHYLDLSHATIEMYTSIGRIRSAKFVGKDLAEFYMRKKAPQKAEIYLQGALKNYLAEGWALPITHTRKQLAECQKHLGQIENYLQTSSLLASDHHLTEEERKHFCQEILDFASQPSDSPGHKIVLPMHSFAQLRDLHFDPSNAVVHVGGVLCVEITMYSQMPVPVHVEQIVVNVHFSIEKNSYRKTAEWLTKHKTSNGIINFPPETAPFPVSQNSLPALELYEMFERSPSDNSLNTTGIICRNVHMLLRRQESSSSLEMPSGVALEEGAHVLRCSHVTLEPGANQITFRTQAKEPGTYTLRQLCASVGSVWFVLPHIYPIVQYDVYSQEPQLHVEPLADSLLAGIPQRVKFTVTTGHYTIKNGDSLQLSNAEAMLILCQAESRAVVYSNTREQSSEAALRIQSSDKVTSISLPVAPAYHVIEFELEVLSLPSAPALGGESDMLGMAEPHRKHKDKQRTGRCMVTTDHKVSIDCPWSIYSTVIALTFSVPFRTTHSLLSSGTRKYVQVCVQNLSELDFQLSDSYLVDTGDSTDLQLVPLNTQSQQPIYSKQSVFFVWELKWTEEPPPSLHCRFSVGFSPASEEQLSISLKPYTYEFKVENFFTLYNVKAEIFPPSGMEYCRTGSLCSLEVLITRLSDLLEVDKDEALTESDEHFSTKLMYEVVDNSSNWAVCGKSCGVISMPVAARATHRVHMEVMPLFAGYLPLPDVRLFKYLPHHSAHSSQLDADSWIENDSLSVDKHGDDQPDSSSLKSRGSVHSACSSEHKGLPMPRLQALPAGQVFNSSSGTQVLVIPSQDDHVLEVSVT
UniProt P49674: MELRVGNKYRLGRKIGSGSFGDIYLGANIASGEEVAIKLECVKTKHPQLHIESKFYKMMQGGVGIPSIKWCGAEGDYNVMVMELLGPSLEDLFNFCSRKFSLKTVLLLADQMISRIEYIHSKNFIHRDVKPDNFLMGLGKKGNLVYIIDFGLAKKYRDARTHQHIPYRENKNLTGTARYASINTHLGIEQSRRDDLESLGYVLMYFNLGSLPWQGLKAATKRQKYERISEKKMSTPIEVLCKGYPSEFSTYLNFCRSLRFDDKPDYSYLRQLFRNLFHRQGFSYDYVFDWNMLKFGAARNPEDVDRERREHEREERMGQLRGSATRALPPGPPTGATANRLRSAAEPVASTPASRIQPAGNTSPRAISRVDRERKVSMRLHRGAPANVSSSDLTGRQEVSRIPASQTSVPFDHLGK
UniProt P48449: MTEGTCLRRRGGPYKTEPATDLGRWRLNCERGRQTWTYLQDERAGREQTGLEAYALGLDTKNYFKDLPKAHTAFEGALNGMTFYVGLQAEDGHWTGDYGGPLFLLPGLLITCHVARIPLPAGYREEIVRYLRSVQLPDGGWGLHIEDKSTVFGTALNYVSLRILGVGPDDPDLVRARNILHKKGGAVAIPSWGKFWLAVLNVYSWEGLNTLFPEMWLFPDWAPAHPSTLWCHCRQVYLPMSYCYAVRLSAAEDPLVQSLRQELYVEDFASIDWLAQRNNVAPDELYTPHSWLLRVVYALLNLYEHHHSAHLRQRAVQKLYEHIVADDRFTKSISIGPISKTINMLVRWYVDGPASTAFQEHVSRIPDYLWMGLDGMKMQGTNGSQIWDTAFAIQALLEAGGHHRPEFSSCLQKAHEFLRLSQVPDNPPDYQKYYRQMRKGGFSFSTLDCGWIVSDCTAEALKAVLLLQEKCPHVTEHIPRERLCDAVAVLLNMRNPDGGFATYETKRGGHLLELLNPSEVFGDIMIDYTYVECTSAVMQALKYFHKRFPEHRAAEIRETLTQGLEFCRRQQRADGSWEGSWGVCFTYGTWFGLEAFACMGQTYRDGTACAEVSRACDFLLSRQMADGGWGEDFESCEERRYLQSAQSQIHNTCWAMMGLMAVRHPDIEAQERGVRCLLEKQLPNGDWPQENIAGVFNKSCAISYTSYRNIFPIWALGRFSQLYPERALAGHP
UniProt P41236: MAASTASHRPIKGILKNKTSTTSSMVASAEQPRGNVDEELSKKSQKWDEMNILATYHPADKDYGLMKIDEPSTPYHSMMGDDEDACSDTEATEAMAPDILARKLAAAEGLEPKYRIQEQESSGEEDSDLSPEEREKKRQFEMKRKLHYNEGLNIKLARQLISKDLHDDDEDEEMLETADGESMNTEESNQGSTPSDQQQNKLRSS
UniProt P41227: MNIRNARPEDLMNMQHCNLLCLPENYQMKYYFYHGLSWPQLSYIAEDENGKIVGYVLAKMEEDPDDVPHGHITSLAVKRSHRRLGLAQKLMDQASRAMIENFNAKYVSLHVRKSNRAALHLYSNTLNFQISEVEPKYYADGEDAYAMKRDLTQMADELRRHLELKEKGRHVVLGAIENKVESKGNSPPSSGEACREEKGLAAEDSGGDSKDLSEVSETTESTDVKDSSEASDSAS
UniProt P36871: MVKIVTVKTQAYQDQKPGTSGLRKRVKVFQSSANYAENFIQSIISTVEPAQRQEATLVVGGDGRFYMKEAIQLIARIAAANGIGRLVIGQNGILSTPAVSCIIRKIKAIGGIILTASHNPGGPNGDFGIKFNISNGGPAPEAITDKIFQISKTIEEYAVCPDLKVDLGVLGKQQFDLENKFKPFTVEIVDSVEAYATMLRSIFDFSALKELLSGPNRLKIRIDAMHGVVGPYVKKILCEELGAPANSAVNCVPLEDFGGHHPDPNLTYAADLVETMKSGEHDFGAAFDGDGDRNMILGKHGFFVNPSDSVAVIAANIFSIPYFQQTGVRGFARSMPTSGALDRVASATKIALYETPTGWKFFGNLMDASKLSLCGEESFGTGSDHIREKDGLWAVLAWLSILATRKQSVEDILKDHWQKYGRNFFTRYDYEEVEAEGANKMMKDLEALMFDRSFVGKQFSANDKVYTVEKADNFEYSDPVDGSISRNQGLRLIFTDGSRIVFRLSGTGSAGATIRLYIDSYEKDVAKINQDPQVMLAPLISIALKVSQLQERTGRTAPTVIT
UniProt P50443: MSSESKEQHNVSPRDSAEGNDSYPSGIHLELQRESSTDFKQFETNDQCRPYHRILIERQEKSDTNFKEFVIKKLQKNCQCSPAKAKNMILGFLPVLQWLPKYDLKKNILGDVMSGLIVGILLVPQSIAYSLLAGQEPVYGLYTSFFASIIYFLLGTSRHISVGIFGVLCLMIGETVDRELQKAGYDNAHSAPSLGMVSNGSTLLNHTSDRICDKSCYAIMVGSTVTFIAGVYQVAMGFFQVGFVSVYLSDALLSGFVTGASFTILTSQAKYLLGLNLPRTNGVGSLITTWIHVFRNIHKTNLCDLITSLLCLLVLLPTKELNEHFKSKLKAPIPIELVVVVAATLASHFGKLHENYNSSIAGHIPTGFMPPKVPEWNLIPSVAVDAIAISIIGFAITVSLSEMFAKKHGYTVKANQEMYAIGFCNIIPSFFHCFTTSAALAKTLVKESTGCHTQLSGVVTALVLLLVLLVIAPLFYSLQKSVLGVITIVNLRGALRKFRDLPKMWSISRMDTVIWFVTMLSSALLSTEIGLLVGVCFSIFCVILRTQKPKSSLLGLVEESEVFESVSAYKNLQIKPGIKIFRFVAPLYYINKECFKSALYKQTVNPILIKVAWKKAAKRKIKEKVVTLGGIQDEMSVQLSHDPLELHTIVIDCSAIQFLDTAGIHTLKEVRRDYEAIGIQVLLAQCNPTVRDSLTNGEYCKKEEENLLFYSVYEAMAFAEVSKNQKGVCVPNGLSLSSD
UniProt P51452: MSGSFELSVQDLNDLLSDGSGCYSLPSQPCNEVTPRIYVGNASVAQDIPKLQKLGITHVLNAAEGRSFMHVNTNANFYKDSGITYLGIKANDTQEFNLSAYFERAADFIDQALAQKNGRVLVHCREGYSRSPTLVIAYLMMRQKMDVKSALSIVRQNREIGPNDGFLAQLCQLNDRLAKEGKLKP
UniProt P46926: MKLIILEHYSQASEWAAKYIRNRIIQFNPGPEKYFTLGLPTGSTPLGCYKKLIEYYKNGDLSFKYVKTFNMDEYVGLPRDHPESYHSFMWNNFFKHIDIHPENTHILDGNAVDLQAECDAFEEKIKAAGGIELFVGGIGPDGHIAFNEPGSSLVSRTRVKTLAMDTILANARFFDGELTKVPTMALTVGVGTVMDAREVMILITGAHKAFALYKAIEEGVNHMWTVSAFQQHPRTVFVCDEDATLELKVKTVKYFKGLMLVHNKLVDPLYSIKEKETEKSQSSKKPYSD
UniProt P43007: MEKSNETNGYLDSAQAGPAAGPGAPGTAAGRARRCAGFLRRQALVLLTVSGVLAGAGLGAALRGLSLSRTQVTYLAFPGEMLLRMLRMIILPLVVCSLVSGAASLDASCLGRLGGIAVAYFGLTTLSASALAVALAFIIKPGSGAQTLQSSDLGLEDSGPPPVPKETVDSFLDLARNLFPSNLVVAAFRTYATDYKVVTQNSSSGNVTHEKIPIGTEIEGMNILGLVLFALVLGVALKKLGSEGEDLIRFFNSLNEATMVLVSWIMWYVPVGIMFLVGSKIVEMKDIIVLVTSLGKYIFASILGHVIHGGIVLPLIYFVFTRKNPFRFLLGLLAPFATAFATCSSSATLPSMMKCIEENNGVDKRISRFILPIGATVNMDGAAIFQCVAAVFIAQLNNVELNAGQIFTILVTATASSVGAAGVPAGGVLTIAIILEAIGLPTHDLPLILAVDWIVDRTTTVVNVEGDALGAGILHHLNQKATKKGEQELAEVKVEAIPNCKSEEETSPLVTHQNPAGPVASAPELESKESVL
UniProt P48147: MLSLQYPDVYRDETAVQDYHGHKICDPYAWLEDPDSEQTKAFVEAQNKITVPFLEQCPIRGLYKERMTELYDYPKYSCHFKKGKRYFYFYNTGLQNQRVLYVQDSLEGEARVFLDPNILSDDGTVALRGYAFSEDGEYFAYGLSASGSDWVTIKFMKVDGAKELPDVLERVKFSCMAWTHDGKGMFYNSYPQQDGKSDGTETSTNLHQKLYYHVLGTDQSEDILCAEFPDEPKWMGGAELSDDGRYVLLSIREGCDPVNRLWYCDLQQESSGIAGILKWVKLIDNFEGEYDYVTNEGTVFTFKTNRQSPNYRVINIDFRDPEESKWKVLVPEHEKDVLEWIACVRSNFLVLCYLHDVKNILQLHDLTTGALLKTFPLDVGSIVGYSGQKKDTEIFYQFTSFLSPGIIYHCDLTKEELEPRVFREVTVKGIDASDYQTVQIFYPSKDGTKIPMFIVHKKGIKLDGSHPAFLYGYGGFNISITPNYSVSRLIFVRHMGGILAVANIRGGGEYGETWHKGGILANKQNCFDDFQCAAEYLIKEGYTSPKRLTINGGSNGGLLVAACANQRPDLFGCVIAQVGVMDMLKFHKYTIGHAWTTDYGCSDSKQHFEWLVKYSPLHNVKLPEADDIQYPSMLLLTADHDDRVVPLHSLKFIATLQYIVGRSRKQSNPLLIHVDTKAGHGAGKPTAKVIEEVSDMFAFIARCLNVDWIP
UniProt P36402, whole entry: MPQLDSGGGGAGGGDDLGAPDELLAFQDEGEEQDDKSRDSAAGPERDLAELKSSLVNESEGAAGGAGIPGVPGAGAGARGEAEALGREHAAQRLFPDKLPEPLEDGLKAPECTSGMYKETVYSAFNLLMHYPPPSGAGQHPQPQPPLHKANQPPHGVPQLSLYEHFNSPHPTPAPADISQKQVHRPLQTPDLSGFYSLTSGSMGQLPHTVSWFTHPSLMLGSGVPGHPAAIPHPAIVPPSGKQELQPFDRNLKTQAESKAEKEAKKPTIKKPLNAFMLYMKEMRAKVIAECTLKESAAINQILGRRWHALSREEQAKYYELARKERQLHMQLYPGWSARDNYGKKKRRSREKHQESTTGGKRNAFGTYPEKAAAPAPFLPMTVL

± gives the standard deviation of the averaged measurements. The list shows a part of the results, in another mix than the full data.

Compound in this test: Nc1ncnc2c1ncn2[C@@H]1O[C@H](COP(=O)(O)OP(=O)(O)OP(=O)(O)O)[C@@H](O)[C@H]1O [adenosine triphosphate]
Briefly: NP40-soluble protein abundance relative to vehicle (solubility fold change) (ratio); higher = more soluble protein in presence of ATP. In a few lines:
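Jurkat crude lysate (Dounce-homogenised) was treated with eight concentrations from 0.1 to 10 mM for 10 min at room temperature, then 3 min at 37 °C. It was solubilised with 0.8% NP40 and benzonase (60 min, 4 °C) and ultracentrifuged, and the supernatant was TMT-labelled for LC-MS/MS. Intensities were vsn-normalised, and the value is the fold change against the NP40-processed vehicle per replicate, from three independent experiments.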

For the target LRPPRC (UniProt P42704), the NP40-soluble protein abundance is 0.929 ± 0.071 (concentration: 1mM); 1 ± 0.11 (concentration: 2mM); 0.922 ± 0.021 (concentration: 4mM); 0.854 ± 0.02 (concentration: 6mM); 0.955 ± 0.026 (concentration: 8mM); 0.921 ± 0.055 (concentration: 10mM).
Consider TRAPPC10 (UniProt P48553), for which the NP40-soluble protein abundance worked out at 1.08 ± 0.022 (concentration: 1mM); 1 ± 0.015 (concentration: 2mM); 1.06 ± 0.093 (concentration: 4mM); 0.989 ± 0.061 (concentration: 6mM); 1.06 ± 0.1 (concentration: 8mM); 1.046 ± 0.0087 (concentration: 10mM).
Regarding UniProt P49674, the NP40-soluble protein abundance (concentration: 1mM) worked out at 0.996 ± 0.017; the NP40-soluble protein abundance (concentration: 2mM) was 1.02 ± 0.014; the NP40-soluble protein abundance (concentration: 4mM) was 1.05 ± 0.021; the NP40-soluble protein abundance (concentration: 6mM) is 1.117 ± 0.0069; the NP40-soluble protein abundance (concentration: 8mM) came out at 1.05 ± 0.03; the NP40-soluble protein abundance (concentration: 10mM) was found to be 1.047 ± 0.0049.
On to HLCS (UniProt P50747), for which the NP40-soluble protein abundance by setting is: (concentration: 1mM) 0.971 ± 0.022; (concentration: 2mM) 0.954 ± 0.02; (concentration: 4mM) 0.994 ± 0.038; (concentration: 6mM) 0.944 ± 0.033; (concentration: 8mM) 0.937 ± 0.026; (concentration: 10mM) 0.884 ± 0.11.
For the target UniProt P42898 and related entries, the NP40-soluble protein abundance reads like this: (concentration: 1mM) 1.08 ± 0.13; (concentration: 2mM) 1.06 ± 0.08; (concentration: 4mM) 1.05 ± 0.085; (concentration: 6mM) 0.991 ± 0.071; (concentration: 8mM) 1.07 ± 0.039; (concentration: 10mM) 1.04 ± 0.094.
As to LSS (UniProt P48449), the NP40-soluble protein abundance amounted to 1.02 ± 0.098 (concentration: 1mM); 0.998 ± 0.086 (concentration: 2mM); 0.973 ± 0.075 (concentration: 4mM); 0.907 ± 0.13 (concentration: 6mM); 0.992 ± 0.049 (concentration: 8mM); 0.986 ± 0.06 (concentration: 10mM).
UniProt P36507: the NP40-soluble protein abundance (concentration: 1mM) turned out to be 0.988 ± 0.023; the NP40-soluble protein abundance (concentration: 2mM) amounted to 0.973 ± 0.023; the NP40-soluble protein abundance (concentration: 4mM) is 0.96 ± 0.027; the NP40-soluble protein abundance (concentration: 6mM) amounted to 0.958 ± 0.03; the NP40-soluble protein abundance (concentration: 8mM) was found to be 0.935 ± 0.02; the NP40-soluble protein abundance (concentration: 10mM) was 0.944 ± 0.021.
Take PPP1R2 (UniProt P41236): the NP40-soluble protein abundance was found to be 0.902 ± 0.14 (concentration: 1mM); 0.916 ± 0.13 (concentration: 2mM); 0.887 ± 0.079 (concentration: 4mM); 0.924 ± 0.15 (concentration: 6mM); 0.81 ± 0.052 (concentration: 8mM); 0.766 ± 0.1 (concentration: 10mM).
As for RPL29 (UniProt P47914), the NP40-soluble protein abundance was 0.965 ± 0.17 (concentration: 1mM); 0.965 ± 0.26 (concentration: 2mM); 0.908 ± 0.18 (concentration: 4mM); 0.903 ± 0.27 (concentration: 6mM); 0.616 ± 0.062 (concentration: 8mM); 0.923 ± 0.19 (concentration: 10mM).
SMS (UniProt P52788): the NP40-soluble protein abundance was found to be 0.9815 ± 0.0077 (concentration: 1mM); 0.97 ± 0.031 (concentration: 2mM); 0.955 ± 0.023 (concentration: 4mM); 1 ± 0.059 (concentration: 6mM); 0.968 ± 0.042 (concentration: 8mM); 0.93 ± 0.041 (concentration: 10mM).
For the target UniProt P41227, the NP40-soluble protein abundance is 1.01 ± 0.064 (concentration: 1mM); 0.971 ± 0.035 (concentration: 2mM); 0.971 ± 0.065 (concentration: 4mM); 1.01 ± 0.065 (concentration: 6mM); 0.948 ± 0.051 (concentration: 8mM); 0.973 ± 0.025 (concentration: 10mM).
As for PGM1 (UniProt P36871), the NP40-soluble protein abundance by setting is: (concentration: 1mM) 0.985 ± 0.069; (concentration: 2mM) 0.958 ± 0.061; (concentration: 4mM) 0.92 ± 0.042; (concentration: 6mM) 0.935 ± 0.099; (concentration: 8mM) 0.936 ± 0.051; (concentration: 10mM) 0.936 ± 0.051.
Consider SLC26A2 (UniProt P50443), for which the NP40-soluble protein abundance runs as follows: (concentration: 1mM) 0.962 ± 0.12; (concentration: 2mM) 0.986 ± 0.098; (concentration: 4mM) 0.88 ± 0.073; (concentration: 6mM) 0.949 ± 0.071; (concentration: 8mM) 0.996 ± 0.15; (concentration: 10mM) 0.984 ± 0.14.
For UniProt P36954, the NP40-soluble protein abundance came to 1.03 ± 0.073 (concentration: 1mM); 1.07 ± 0.041 (concentration: 2mM); 1.05 ± 0.049 (concentration: 4mM); 1.11 ± 0.1 (concentration: 6mM); 1.08 ± 0.025 (concentration: 8mM); 1.07 ± 0.069 (concentration: 10mM).
Regarding RPL28 (UniProt P46779), the NP40-soluble protein abundance (concentration: 1mM) turned out to be 0.92 ± 0.097; the NP40-soluble protein abundance (concentration: 2mM) was 0.874 ± 0.16; the NP40-soluble protein abundance (concentration: 4mM) came to 0.821 ± 0.12; the NP40-soluble protein abundance (concentration: 6mM) was found to be 0.798 ± 0.21; the NP40-soluble protein abundance (concentration: 8mM) came out at 0.575 ± 0.18; the NP40-soluble protein abundance (concentration: 10mM) came to 0.81 ± 0.13.
DUSP3 (UniProt P51452): the NP40-soluble protein abundance (concentration: 1mM) amounted to 0.965 ± 0.036; the NP40-soluble protein abundance (concentration: 2mM) amounted to 0.992 ± 0.055; the NP40-soluble protein abundance (concentration: 4mM) is 1 ± 0.087; the NP40-soluble protein abundance (concentration: 6mM) stood at 0.958 ± 0.051; the NP40-soluble protein abundance (concentration: 8mM) is 0.946 ± 0.047; the NP40-soluble protein abundance (concentration: 10mM) amounted to 0.94 ± 0.077.
As for MTOR (UniProt P42345), the NP40-soluble protein abundance by setting is: (concentration: 1mM) 1.06 ± 0.084; (concentration: 2mM) 1.03 ± 0.053; (concentration: 4mM) 1.03 ± 0.063; (concentration: 6mM) 0.987 ± 0.065; (concentration: 8mM) 1.05 ± 0.022; (concentration: 10mM) 1.04 ± 0.031.
As for GNPDA1 (UniProt P46926), the NP40-soluble protein abundance is, setting by setting: (concentration: 1mM) 0.988 ± 0.15; (concentration: 2mM) 0.962 ± 0.11; (concentration: 4mM) 0.925 ± 0.073; (concentration: 6mM) 0.878 ± 0.14; (concentration: 8mM) 0.912 ± 0.0098; (concentration: 10mM) 0.956 ± 0.087.
With SLC1A4 (UniProt P43007), the NP40-soluble protein abundance (concentration: 1mM) worked out at 0.977 ± 0.068; the NP40-soluble protein abundance (concentration: 2mM) was determined as 1.01 ± 0.033; the NP40-soluble protein abundance (concentration: 4mM) is 0.976 ± 0.057; the NP40-soluble protein abundance (concentration: 6mM) came out at 0.975 ± 0.025; the NP40-soluble protein abundance (concentration: 8mM) was 0.98 ± 0.051; the NP40-soluble protein abundance (concentration: 10mM) is 0.921 ± 0.079.
With LMAN1 (UniProt P49257), the NP40-soluble protein abundance (concentration: 1mM) turned out to be 1.02 ± 0.051; the NP40-soluble protein abundance (concentration: 2mM) turned out to be 0.995 ± 0.032; the NP40-soluble protein abundance (concentration: 4mM) was determined as 0.966 ± 0.039; the NP40-soluble protein abundance (concentration: 6mM) turned out to be 0.995 ± 0.063; the NP40-soluble protein abundance (concentration: 8mM) came out at 0.992 ± 0.04; the NP40-soluble protein abundance (concentration: 10mM) came to 0.967 ± 0.054.
As for DAP3 (UniProt P51398), the NP40-soluble protein abundance was found to be 1.04 ± 0.031 (concentration: 1mM); 0.959 ± 0.066 (concentration: 2mM); 0.951 ± 0.11 (concentration: 4mM); 0.94 ± 0.13 (concentration: 6mM); 0.951 ± 0.14 (concentration: 8mM); 0.892 ± 0.1 (concentration: 10mM).
For the target UniProt P37275-2|P37275-5, the NP40-soluble protein abundance came out at 0.947 ± 0.072 (concentration: 1mM); 0.967 ± 0.046 (concentration: 2mM); 0.955 ± 0.038 (concentration: 4mM); 0.983 ± 0.046 (concentration: 6mM); 0.939 ± 0.025 (concentration: 8mM); 0.97 ± 0.043 (concentration: 10mM).
On to PREP (UniProt P48147), for which the NP40-soluble protein abundance by setting is: (concentration: 1mM) 1.06 ± 0.1; (concentration: 2mM) 0.999 ± 0.09; (concentration: 4mM) 0.992 ± 0.074; (concentration: 6mM) 0.957 ± 0.13; (concentration: 8mM) 1.03 ± 0.083; (concentration: 10mM) 0.968 ± 0.071.
In the case of TUFM (UniProt P49411), the NP40-soluble protein abundance is, setting by setting: (concentration: 1mM) 1.02 ± 0.038; (concentration: 2mM) 0.984 ± 0.027; (concentration: 4mM) 0.977 ± 0.015; (concentration: 6mM) 0.935 ± 0.037; (concentration: 8mM) 1.04 ± 0.072; (concentration: 10mM) 0.994 ± 0.038.
Regarding UniProt P36402-5, the NP40-soluble protein abundance was determined as 0.903 ± 0.082 (concentration: 1mM); 0.87 ± 0.1 (concentration: 2mM); 0.868 ± 0.14 (concentration: 4mM); 0.866 ± 0.16 (concentration: 6mM); 0.892 ± 0.14 (concentration: 8mM); 0.885 ± 0.12 (concentration: 10mM).
